Binding data for 3 molecules are collected here from publication PMC11301343.

Chains of the proteins cited; added tags and fusions are not shown.
UniProt Q9H4L4: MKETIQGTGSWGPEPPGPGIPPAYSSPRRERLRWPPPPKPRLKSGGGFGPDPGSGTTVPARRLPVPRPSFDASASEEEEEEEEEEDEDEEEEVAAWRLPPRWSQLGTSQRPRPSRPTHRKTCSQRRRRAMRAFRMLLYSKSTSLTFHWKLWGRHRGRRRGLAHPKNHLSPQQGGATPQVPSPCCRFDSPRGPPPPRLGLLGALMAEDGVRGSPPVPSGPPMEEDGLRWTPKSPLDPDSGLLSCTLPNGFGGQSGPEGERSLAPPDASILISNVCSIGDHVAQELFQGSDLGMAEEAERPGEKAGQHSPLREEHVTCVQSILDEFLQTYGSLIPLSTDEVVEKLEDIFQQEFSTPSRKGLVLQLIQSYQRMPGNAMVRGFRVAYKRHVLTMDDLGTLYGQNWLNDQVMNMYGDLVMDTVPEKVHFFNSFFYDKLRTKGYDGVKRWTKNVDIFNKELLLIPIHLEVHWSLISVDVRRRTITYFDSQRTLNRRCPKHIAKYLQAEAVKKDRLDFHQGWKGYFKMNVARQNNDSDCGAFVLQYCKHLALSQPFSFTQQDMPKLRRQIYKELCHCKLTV

In assay [1] the target is T1, 3 × flag-FSP1 (human, in HEK293T) (human) (UniProt Q9BRQ8).
T1 sequence: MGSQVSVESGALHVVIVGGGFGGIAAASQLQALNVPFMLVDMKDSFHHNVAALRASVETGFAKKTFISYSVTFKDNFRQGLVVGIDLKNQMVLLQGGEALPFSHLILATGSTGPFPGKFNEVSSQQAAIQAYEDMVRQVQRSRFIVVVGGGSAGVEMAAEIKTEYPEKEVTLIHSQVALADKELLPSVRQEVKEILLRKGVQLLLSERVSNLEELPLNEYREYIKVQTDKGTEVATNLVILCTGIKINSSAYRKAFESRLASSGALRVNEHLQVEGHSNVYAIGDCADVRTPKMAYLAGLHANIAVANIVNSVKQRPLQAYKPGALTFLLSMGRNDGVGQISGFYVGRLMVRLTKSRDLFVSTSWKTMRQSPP
In words: co-IP; HEK293T cells co-transfected for 36 h (flag-SENP3 + HA-FSP1, or GFP-SENP3 + 3xflag-FSP1; vectors as control); lysates incubated with anti-Flag M2 magnetic beads overnight at 4 °C; IB with anti-HA or anti-GFP.

In assay [2] the target is T2, 3 × flag-FSP1 (human, stably overexpressed in HT1080) (human) (UniProt Q9BRQ8).
T2 sequence: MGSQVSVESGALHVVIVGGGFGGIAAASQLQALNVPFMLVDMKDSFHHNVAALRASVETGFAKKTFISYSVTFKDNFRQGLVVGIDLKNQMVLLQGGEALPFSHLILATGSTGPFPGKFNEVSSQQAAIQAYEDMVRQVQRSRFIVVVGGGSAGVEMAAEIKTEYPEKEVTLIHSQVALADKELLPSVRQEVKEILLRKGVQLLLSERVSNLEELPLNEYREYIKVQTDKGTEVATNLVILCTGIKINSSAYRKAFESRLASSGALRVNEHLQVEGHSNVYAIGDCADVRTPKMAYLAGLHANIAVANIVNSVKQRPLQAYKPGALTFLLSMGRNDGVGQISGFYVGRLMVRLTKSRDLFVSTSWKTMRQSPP
In words: co-IP; HT1080 cells stably overexpressing 3xflag-FSP1 or 3xflag-FSP1 K162R; immunoprecipitation with FLAG-M2 beads; IB with anti-SENP3 antibody.

Assay [3] deals with T3, 3 × flag-FSP1 K162R mutant (human, stably overexpressed in HT1080) (human) (UniProt Q9BRQ8).
T3 sequence: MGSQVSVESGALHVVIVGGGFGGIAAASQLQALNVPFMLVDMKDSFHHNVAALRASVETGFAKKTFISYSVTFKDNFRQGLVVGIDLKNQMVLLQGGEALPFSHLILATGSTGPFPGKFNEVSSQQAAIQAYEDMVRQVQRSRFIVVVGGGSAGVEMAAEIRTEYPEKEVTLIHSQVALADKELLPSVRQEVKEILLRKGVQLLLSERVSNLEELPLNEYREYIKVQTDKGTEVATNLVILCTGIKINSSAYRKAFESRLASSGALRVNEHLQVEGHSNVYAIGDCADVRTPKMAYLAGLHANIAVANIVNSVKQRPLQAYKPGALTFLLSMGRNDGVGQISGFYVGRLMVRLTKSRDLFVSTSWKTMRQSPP
Described as above.

For a further assay, the target named is flag-SENP3 (human) (UniProt Q9H4L4). Briefly: co-IP; HEK293T cells co-transfected for 36 h (flag-SENP3 + HA-FSP1, or GFP-SENP3 + 3xflag-FSP1; vectors as control); lysates incubated with anti-Flag M2 magnetic beads overnight at 4 °C; IB with anti-HA or anti-GFP.

Results are given in words; binding and its absence hold for the method and conditions named. Binding seen in cells or lysates may run through a third protein. Some binding calls cover weakened binding; strength is not graded here. Where a sequence is shown, tags or fusion partners need not be part of it.

Consider “GFP-SENP3 (from UniProt Q9H4L4 1-574) (enzyme)”, for which the binding result in assay [1] is “binds”.

On to “SENP3 in HT1080 cells (detected with anti-SENP3 antibody) (from UniProt Q9H4L4 1-574) (enzyme)”, for which the binding entry in assay [2] and in assay [3] was “binds” each time.

B1: human HA-FSP1 (protein, UniProt Q9BRQ8-1 1-373)
chain: MGSQVSVESGALHVVIVGGGFGGIAAASQLQALNVPFMLVDMKDSFHHNVAALRASVETGFAKKTFISYSVTFKDNFRQGLVVGIDLKNQMVLLQGGEALPFSHLILATGSTGPFPGKFNEVSSQQAAIQAYEDMVRQVQRSRFIVVVGGGSAGVEMAAEIKTEYPEKEVTLIHSQVALADKELLPSVRQEVKEILLRKGVQLLLSERVSNLEELPLNEYREYIKVQTDKGTEVATNLVILCTGIKINSSAYRKAFESRLASSGALRVNEHLQVEGHSNVYAIGDCADVRTPKMAYLAGLHANIAVANIVNSVKQRPLQAYKPGALTFLLSMGRNDGVGQISGFYVGRLMVRLTKSRDLFVSTSWKTMRQSPP
In the case of B1, the binding entry in the assay with flag-SENP3 (human) is reported as “binds”.
